Assay results taken from patent US20110028504A1, “Formulation of radioprotective alpha beta unsaturated aryl sulfones” (ONCONOVA THERAPEUTICS, INC., priority 2005, published 2011).
For at least one compound, name, drawing or mass did not settle the structure.

Legend:
HFL-1 cells = experiment: Radioprotection of cultured normal cells, colony count after ionizing radiation; format: cell-based, human
Experimental: HFL-1 cells, which are normal diploid lung fibroblasts, were plated into 24 well dishes at a cell density of 3000 cells per 10 mm^2 in DMEM completed with 10% fetal bovine serum and antibiotics. The test compounds listed in Table 28 were added to the cells 24 hours later in select concentrations from 2.5 to 20 micromolar, inclusive, using DMSO as a solvent. Control cells were treated with DMSO alone. The cells were exposed to the test compound or DMSO for 24 hrs. The cells were then irradiated with either 10 Gy (gray) or 15 Gy of ionizing radiation (IR) using a J.L. Shepherd Mark I, Model 30-1 Irradiator equipped with ^137cesium as a source.
After irradiation, the medium on the test and control cells was removed and replaced with fresh growth medium without the test compounds or DMSO. […] The number of colonies from each 100 mm^2 culture dish, which represents the number of surviving cells, was determined by staining the dishes as described below.
To visualize and count the colonies derived from the clonal outgrowth of individual radioprotected cells, the medium was removed and the plates were washed one time with room temperature phosphate buffered saline. […] The plates were air dried, the number of colonies from each plate were counted and the average from duplicate plates was determined. […]

[1] = Solid-state stability at 75° C.; format: physicochemical; conditions: for Determined conc.: reconstituted
Experimental: The stability of ON.1210.Na in the solid state is determined by exposing the drug at 75° C. over a prolonged time. The sample is crimped in a 10 mL injection vial and kept at the above temperature. The sample is collected after 15 days and one month and reconstituted with diluting solution and its concentration is determined by HPLC. Appearance of any additional peak in the chromatogram is also noted. A control sample is represented by ON.1210.Na not exposed to 75° C. and reconstituted to a known concentration with diluting solution.

[2] = Forced degradation studies (HPLC); format: physicochemical
Experimental: In order to establish the specificity of this assay procedure several forced degradation studies were conducted as follows:
The ON.1210.Na sample is prepared in HPLC grade water at a concentration of 200 μg/mL. All the peaks detected in the chromatogram at time zero are noted with their corresponding retention time and absolute peak areas. The solution is crimped into a 5 mL glass vial and autoclaved. After autoclaving, the sample is filtered through a 0.1μ filter and 20 μL of the filtered sample is analyzed. The absolute peak area of the peak after autoclaving and appearance of any additional peaks due to possible degradation is shown in Table 9.
One ml of the 500 μg/mL standard solution is mixed with 1 mL of 0.1 N HCl. The sample is cloudy in appearance and filtered prior to HPLC analysis. All the peaks detected in the chromatogram at time zero are noted with their corresponding retention time and absolute peak areas. The solution is crimped into a 5 mL glass vial and autoclaved. After autoclaving, the sample is filtered through a 0.1μ filter and […] of the filtered sample is analyzed by HPLC. The absolute peak areas of the peak after autoclaving, and appearance of any other peaks due to possible degradation are noted.
One ml of the 500 μg/mL standard solution is mixed with 1 mL of 0.1 N NaOH. The sample is clear in appearance. All the peaks detected in the chromatogram at time zero are noted with their corresponding retention time and absolute peak area. The solution is crimped into a 5 mL glass vial and autoclaved. After autoclaving, the sample is filtered through a 0.1μ filter and 20 μL of the filtered sample is analyzed. The absolute peak area of the peaks after autoclaving and appearance of any other peaks due to possible degradation are noted.
A solid drug sample (ON1210), after autoclaving in a crimped vial, is also evaluated for any degradation using the developed HPLC method. The sample, after autoclaving, is used to make a standard solution of 400 μg/mL and injected onto HPLC.
In this study, 30% of the hydrogen peroxide is diluted to 3% (v/v) with water. One ml of the 500 μg/mL standard solution is mixed with 1 mL of 3% hydrogen peroxide; then incubated at 50° C. over a period of two hours. All the peaks detected in the chromatogram at different time points are noted with their corresponding retention time and absolute peak areas. The chromatograms are run for 30 minute periods.

[3] = 200 μg/mL in HPLC grade water, peak at retention time […]
[4] = 0.05N HCl, peak at retention time 5.05 min
[5] = 0.05N NaOH, peak at retention time 5.03 min
[6] = 1.5% hydrogen peroxide, 50° C., peak at retention time 4.22 min

SMILES: O=S(=O)(/C=C/c1ccncc1)Cc1ccc(Cl)cc1 [Compound 9, (E)-4-Pyridylethenyl-4-chlorobenzylsulfone]
- Activity (radioprotective activity, fold protection) (HFL-1 cells; HFL-1 cells, 2.5 to 20 micromolar for 24 hrs before 10 Gy or 15 Gy ionizing radiation, colonies vs DMSO control): −

SMILES: O=C([O-])c1ccc(/C=C/S(=O)(=O)Cc2ccc(Cl)cc2)cc1.[Na+] [ON.1210.Na, (E)-4-Carboxystyryl-4-chlorobenzylsulfone, Sodium Salt]
- % change ([1]; sample not exposed to heating condition (control), day 15): −2.92%
- Determined concentration ([1]; sample not exposed to heating condition (control), day 15, theoretical conc. 250 ug/mL): 242.7 µg/mL
- % change ([1]; sample not exposed to heating condition (control), day 30): −7.1%
- Determined concentration ([1]; sample not exposed to heating condition (control), day 30, theoretical conc. 250 ug/mL): 232.3 µg/mL
- % change ([1]; sample not exposed to heating condition (control), day 45): −0.44%
- Determined concentration ([1]; sample not exposed to heating condition (control), day 45, theoretical conc. 250 ug/mL): 249.8 µg/mL
- % change ([1]; sample not exposed to heating condition (control), day 54): +1.75%
- Determined concentration ([1]; sample not exposed to heating condition (control), day 54, theoretical conc. 200 ug/mL): 203.5 µg/mL
- % change ([1]; solid exposed to 75° C. for 15 days, determined vs theoretical conc.): +6%
- Determined conc. ([1]; solid exposed to 75° C. for 15 days, theoretical conc. 270 ug/mL): 286.2 µg/mL
- % change ([1]; solid exposed to 75° C. for 30 days, determined vs theoretical conc.): +24%
- Determined conc. ([1]; solid exposed to 75° C. for 30 days, theoretical conc. 270 ug/mL): 334.9 µg/mL
- % change ([1]; solid exposed to 75° C. for 45 days, determined vs theoretical conc.): +11.8%
- Determined conc. ([1]; solid exposed to 75° C. for 45 days, theoretical conc. 270 ug/mL): 302.0 µg/mL
- % change ([1]; solid exposed to 75° C. for 54 days, determined vs theoretical conc.): +14.6%
- Determined conc. ([1]; solid exposed to 75° C. for 54 days, theoretical conc. 200 ug/mL): 229.2 µg/mL
- Peak Area after autoclaving [2, 3]: 1303758
- Peak area at time zero (before autoclaving) [2, 3]: 1299297
- Peak Area after autoclaving [2, 4]: 148189
- Peak area at time zero (before autoclaving) [2, 4]: 160391
- % change in peak area ([2]; 0.05N NaOH, autoclaving, peak at retention time 5.03 min): −22.4%
- Peak Area after autoclaving [2, 5]: 1558358
- Peak area at time zero (before autoclaving) [2, 5]: 2008425
- % change in peak area ([2]; 1.5% hydrogen peroxide, 50° C., one to two hours, peak at retention time 4.22 min): −7.82%
- Peak Area after two hours of incubation [2, 6]: 1845952
- Peak area after one hour of incubation [2, 6]: 2002560
- Appearance Of any new peaks ([2]; aqueous solution, after autoclaving): NO
- radio-protection of normal human fibroblasts (HFL-1 cells; treatment prior to cytotoxic levels of ionizing radiation): dose-dependent radio-protection
